{"source": "paper PMC11901765", "about": "“Discovery of N-(2-Acetamidobenzo[d]thiazol-6-yl)-2-phenoxyacetamide Derivatives as Novel Potential BCR-ABL1 Inhibitors Through Structure-Based Virtual Screening” (Molecules, 2025)", "format_in_all_cases": "cell-based", "key": {"parental Ba/F3 cells": {"test_system": "parental Ba/F3 cells", "experiment": "CCK-8 viability assay, parental Ba/F3 cells", "details": "Mus musculus, BaF3, mean ± SD", "description": "(§1) Cell viability was assessed using the Cell Counting Kit-8 (CCK-8) assay. Cells were seeded in 96-well plates at a density of 10,000 cells per well in RPMI 1640 medium. Test compounds were prepared by serially diluting stock solutions 3-fold in DMSO to generate an eight-point concentration gradient (100 μM to 0.045 μM), followed by addition to the cultured cells. After 72 h of incubation, 10 μL of CCK-8 reagent was added to each well, and the plates were further incubated for 2–4 h. Absorbance was measured at 450 nm using a microplate reader. Dose-response curves were generated and analyzed using GraphPad Prism 8 (version 8.4.3.686)."}, "MV411": {"test_system": "MV411", "experiment": "CCK-8 viability assay, MV411 cells", "details": "Homo sapiens, MV4-11; Table 3; mean ± SD", "description": "as §1"}, "HL60": {"test_system": "HL60", "experiment": "CCK-8 viability assay, HL60 cells", "details": "Homo sapiens, HL-60; Table 3; mean ± SD", "description": "as §1"}}, "data": [{"smiles": "Cc1ccc(NC(=O)c2ccc(CN3CCN(C)CC3)cc2)cc1Nc1nccc(-c2cccnc2)n1", "note": "[Imatinib, imatinib, reference compound]", "values": [{"measurement": "GI50", "setting": "parental Ba/F3 cells; CCK8 kit", "value": "38.8 ± 4.5", "unit": "µM"}, {"measurement": "IC50", "setting": "parental Ba/F3 cells; Table 3", "value": "38.8 ± 4.5", "unit": "µM"}, {"measurement": "IC50", "setting": "MV411", "value": "65.7 ± 6.5", "unit": "µM"}, {"measurement": "IC50", "setting": "HL60", "value": "29.1 ± 3.3", "unit": "µM"}]}]}
